Results taken from the supplement of paper PMC3334620.
Over roughly 33,000 sequences, “E-score (-0.5 to 0.5)” has its median near -8e-05; the highest 2% begin near 0.23. Some of the results follow.

What follows are sequences tested against T1, Nrg2 (UniProt P38082) (assay: PBM E-score (8-mer binding enrichment) (E-score (-0.5 to 0.5)); higher = stronger / more preferred TF binding). Settings: protein concentration: 100 nM; construct: GST-full length.
T1 sequence: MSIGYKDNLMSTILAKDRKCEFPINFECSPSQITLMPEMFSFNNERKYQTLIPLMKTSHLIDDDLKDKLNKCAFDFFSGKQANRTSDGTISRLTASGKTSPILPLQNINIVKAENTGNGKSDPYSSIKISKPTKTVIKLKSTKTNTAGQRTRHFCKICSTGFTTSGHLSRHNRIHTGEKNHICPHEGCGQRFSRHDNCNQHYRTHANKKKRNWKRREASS
In short: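 GST-tagged yeast TFs (full-length or DNA-binding domain) were made by PURExpress in vitro transcription/translation and applied at about 100-200 nM to universal all-10-mer Agilent arrays. The arrays were made double-stranded by primer extension, on fresh or once-stripped slides. Bound protein was detected with fluorescent anti-GST, and scans were normalised with masliner. Each ungapped eight-base word, pooled with its reverse complement, received an E-score (modified Wilcoxon-Mann-Whitney statistic) from the Universal PBM Analysis Suite.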

In order of rising “PBM E-score” value:
1. ACCTACGG  -0.376
2. CCCCCCGC  -0.359
3. CACCCGGC  -0.289
4. AGGCTGGA  -0.286
5. CCCCGTCG  -0.259
6. CTGGTCTA  -0.244
7. CGTCCTAG  -0.237
8. CAGACTCC  -0.234
9. CCGTCATC  -0.229
10. CAGTCTTC  -0.226
11. AGACGAGC  -0.219
12. GTGGTACA  -0.213
13. CCAGGTTC  -0.211
14. AGGCACAC  -0.206
15. CGGTATGC  -0.189
16. ATGATTCA  -0.188
17. GCGGGAGC  -0.182
18. AGAGGGAT  -0.179
19. CGCCAGAC  -0.179
20. AGATTAGA  -0.175
21. AAAGACTA  -0.174
22. ATAAAGGA  -0.174
23. AGAGGATA  -0.169
24. CTTTCCTC  -0.169
25. CACTGGCC  -0.167
26. ACGTTCCG  -0.164
27. ACCGTTCA  -0.164
28. GGCAGGCC  -0.16
29. GCTTTTAA  -0.16
30. CTTGTCAA  -0.158
31. AGACACAT  -0.153
32. AGCTTCGG  -0.15
33. CCGCATCG  -0.147
34. GTAGCTGA  -0.146
35. ATGATCCG  -0.139
36. CCACATGG  -0.138
37. GAAAGTGC  -0.128
38. CTCGCCAG  -0.121
39. TGATGGCA  -0.121
40. AGGAGAAG  -0.118
41. CGGAAGAG  -0.116
42. AGTGGTAC  -0.115
43. GAAGGAAC  -0.113
44. GTTCCAAC  -0.113
45. GACCTGTA  -0.113
46. ACAAGTAA  -0.111
47. CTCCGCAA  -0.106
48. GCCTCCAA  -0.0977
49. GCGACCCA  -0.0904
50. ATGTGACG  -0.0867
51. ATGACCTA  -0.0838
52. ATCAGGCC  -0.0823
53. CCTGCCAG  -0.0812
54. CTAAAATC  -0.0812
55. AGCTTCGC  -0.0781
56. AACAGGAG  -0.0775
57. CAAGGGAG  -0.0764
58. ATGCAGCG  -0.0706
59. AGTAGTGA  -0.0673
60. GATAAGCA  -0.0666
61. CGTATACG  -0.0658
62. CGCGTGAC  -0.0656
63. CAGAGGCG  -0.0648
64. CCATCAGC  -0.0593
65. CTGGTTGA  -0.0568
66. AAGTTCGT  -0.0539
67. GCTGTGCA  -0.0522
68. CCATTAAA  -0.0492
69. GCCCGCCC  -0.0459
70. GGCTATCA  -0.0415
71. GCCGGAGA  -0.0411
72. CAGCTATC  -0.0378
73. ACACGATC  -0.0363
74. CTTTATAC  -0.0348
75. AGTCCGGA  -0.0347
76. CCATGACG  -0.0339
77. GCACAGAC  -0.0323
78. TAGTTACA  -0.0277
79. CAAAGGTG  -0.0273
80. CTCTCGAA  -0.0216
81. GAGCGACA  -0.0204
82. GAGCTGCA  -0.0147
83. CGACATCC  -0.011
84. CTGCGCTA  -0.00834
85. AGGGAGGG  -0.00754
86. TGAAATAA  -0.00633
87. ACATTTGG  0.00028
88. AAAACGAC  0.00163
89. ACTCACAT  0.00331
90. ACTAATCT  0.00502
91. GGAAGCTA  0.00964
92. CCCAATCC  0.0106
93. AGAAGATA  0.0123
94. TGCCGCCA  0.0203
95. CCGTACGC  0.0223
96. ACGGCATG  0.0231
97. CTCTACCA  0.0251
98. ACCGCTTG  0.0271
99. AAGTCGGA  0.0274
100. GTCATATA  0.0285
101. ACTAGACA  0.0308
102. AGGGGTGC  0.0309
103. AGAATGAC  0.0324
104. CGAAGGTA  0.0374
105. ATGGGTGG  0.0393
106. CTCGATAA  0.041
107. CACGTGTA  0.0418
108. GTGAACTA  0.0422
109. AGACACAG  0.0431
110. CATCTGAG  0.0466
111. CGCGCCCC  0.0504
112. CGTAGATC  0.0509
113. AAGAGTTG  0.0517
114. ACGCAGAC  0.052
115. GTTCCGGA  0.0583
116. GCCGACTA  0.0583
117. AGCTCGAG  0.0655
118. AAGGCAAA  0.0656
119. GGCCAGCA  0.0667
120. CACCACGA  0.0691
121. GCTGAGCA  0.0693
122. AAGCCGGT  0.0724
123. GAGCGCAC  0.0755
124. CACTCGAA  0.0782
125. CCAATAAA  0.079
126. AAAAGAAC  0.0798
127. CAACGGGA  0.0827
128. ACGCAGCA  0.0858
129. ATTATTCC  0.0891
130. ACTCGCTG  0.0939
131. ATGTATGC  0.0964
132. ACGTTCTA  0.0983
133. AACTAGAC  0.0987
134. CACTATCG  0.0999
135. AATCCTAT  0.102
136. AAAAATAC  0.102
137. CTTTAAGA  0.104
138. GACATCTA  0.108
139. CTTCCGGC  0.11
140. GGATATGA  0.111
141. CCCCATCA  0.115
142. AGTAGCGA  0.115
143. GAATACCC  0.12
144. AGATTTCC  0.12
145. ATCCCCAT  0.124
146. ACAAACTC  0.124
147. CATCCGCC  0.125
148. AGTAGAAT  0.128
149. AATCAGAT  0.139
150. ATCTAATA  0.14
151. AGTATGCA  0.143
152. GCGGACAA  0.15
153. ACCAATCG  0.156
154. CGTTTATA  0.156
155. GTTAACCA  0.161
156. TCGCGAAA  0.161
157. AAAATAAT  0.162
158. CACAGTAA  0.174
159. CGATACTA  0.175
160. GGAGACAA  0.178
161. CAGTATGA  0.178
162. ACCTCAGG  0.182
163. TATTGTGA  0.19
164. AGAATAGG  0.196
165. GTCCGGAC  0.196
166. GTGCAAGA  0.198
167. AAGTGAAT  0.201
168. ATGATTGC  0.208
169. TACGAGAA  0.212
170. CCTCGAGG  0.242
171. GAATTTCC  0.252
172. AATAATAT  0.283
